Measured values taken from US20230159436A1, “APPLICATIONS OF AMIDE ANALOGS OF TRITERPENES IN CURES OF CANCER AND OTHER DISEASES” (Pacific Arrow Limited, priority 2021, published 2023).
At least one compound was matched to its structure with a doubt left.

Legend:
WI38 cells = assay: MTT assay, normal lung fibroblast (WI38); format: cell-based, human; conditions: WI38, 6 days, at 10-20 ug/ml
Protocol: (§1) MTT Assay. The procedure for MTT assay followed the method described by Carmichael et al. (1987) with modifications. The cells were seeded into a 96-well plate at for 24 hours before drug-treatment. The cells were then exposed to the drugs for 48, 72, or 96 hours. After the drug-treatment, MTT (0.5 mg/mL) was added to cultures and incubated for an hour. The formazan (product of the reduction of tetrazolium by viable cells) formed and was dissolved with DMSO and the O.D. at 490 nm, and was measured by an ELISA reader. The MTT level of the cells before drug-treatment was also measured (T0). The % cell-growth (% G) is calculated as: % G=(TD−T0/TC−T0)×100(1), where TC or TD represents O.D. readings of control or drug-treated cells.
(§2) When T0>TD, then the cytotoxicity (LC) expressed as % of the control is calculated as: % LC=(TD−T0/T0)×100(2).
Experiment 30: A Comparison of Non-Cancerous with Cancer Cells: • Method: A. Cells • WI38 is a Normal Lung fibroblast. Cells were grew in MEM medium supplemented with 10% FCS, antibiotics and glutamine. 20K cells were seeded per well (96-welled plate) for one day before drug-treatment • ES2 is a Ovary Clear cells carcinoma. Cells were grew in RPMI-1640 medium supplemented with 10% FCS, antibiotics and glutamine. 10K cells were seeded per well (96-welled plate) for one day before drug-treatment. […]

ES2 cells = assay: MTT assay, ovary (ES2); format: cell-based, human; conditions: ES2, 2 days, at 5-10 ug/ml
Protocol: Cells. HTB-9 (bladder), HeLa-S3 (cervix), DU145 (prostate), H460 (lung), MCF-7 (breast), K562 (leukemia), HCT116 (colon), HepG2 (liver), U2OS (bone), T98G (brain), SK-MEL-5 (Skin) and OVCAR 3, ES2 (ovary), Pancreas (Capan), Mouth (KB), Kidney (A498).
as §1, §2
Experiment 30: A Comparison of Non-Cancerous with Cancer Cells: • Method: A. Cells • WI38 is a Normal Lung fibroblast. Cells were grew in MEM medium supplemented with 10% FCS, antibiotics and glutamine. […]

Compound: CC=C(C)C(=O)OCC1(C)C(O)CCC2(C)C1CCC1(C)C2CC=C2C3CC(C)(C)C(OC(=O)C(C)=CC)C(O)C3(CO)C(O)CC21C (centres unmarked) [Tig-S]
- cell growth (WI38 cells): about negative 10%
- cells growth (ES2 cells): negative 70%
